The subject of the experiment is L1210 leukemia ip in BDF1 mice, survival T/C. Put plainly: NCI In Vivo Anticancer Drug Screen. Data for tumor model L1210 Leukemia (intraperitoneal) in B6D2F1 (BDF1) mice. The following applies: T/C endpoint: mean survival time, higher T/C = longer survival.
[1] abbreviates: dose: 75.0 mg/kg/injection, schedule: Q01DX001 (ip), vehicle: saline.
Setting [2] is: dose: 150.0 mg/kg/injection, schedule: Q01DX001 (ip), vehicle: saline.
The mark [3] stands for this setting: dose: 300.0 mg/kg/injection, schedule: Q01DX001 (ip), vehicle: saline.
Setting [4] is: dose: 400.0 mg/kg/injection, schedule: Q01DX001 (ip), vehicle: carboxymethylcellulose (CMC).
[5] abbreviates: dose: 400.0 mg/kg/injection, schedule: Q04DX003 (ip), vehicle: saline with Tween-80.
Where [6] appears, read: dose: 400.0 mg/kg/injection, schedule: Q01DX001 (ip), vehicle: saline.
The mark [7] stands for this setting: dose: 200.0 mg/kg/injection, schedule: Q01DX001 (ip), vehicle: saline.

The list is a part of this screen's results and no random one: it is rich in T/C values a quarter to a half above the control, in often repeated tests (any T/C) and in doses without a T/C. Other doses and runs of a compound stand elsewhere. T/C is the treated group as % of the vehicle group. Some entries give survivors of the animals treated and no T/C: the source holds a T/C of zero for them, seemingly a mark for toxic or unscored doses. Some doses without a T/C left all or most animals alive at the check, yet need not have been tolerated: survival well below the control is almost never listed, so the zero probably covers shortened survival too. Counts of survivors are from the toxicity check (mostly the fifth day) where no day follows; animals may have died later. Schedules are NCI's codes, taken here to give the interval after Q, in days (D) or hours (H), and the number of doses after X. Some doses were run more than once; the values are given in rising order. Some schedules carry Z or #; the key to these is not given. For survival time, this PubChem deposit counts one and a half times the control or more as active, and values a quarter to a half above the control carry no call in these data; other NCI protocols may use other cut-offs.

`CN(Cc1cnc2nc(N)nc(N)c2n1)c1ccc(C(=O)NC(CCC(=O)O)C(=O)O)cc1Cl` (centres undefined): the T/C is, setting by setting: (dose: 3.0 mg/kg/injection, schedule: Q01DX015 (ip), vehicle: saline) 147 % of control; (dose: 5.0 mg/kg/injection, schedule: Q01DX015 (ip), vehicle: saline) 133 % of control.

With `CN1C2CCCC1CC(=O)NC2` (centres undefined), the survivor count is 0 of 6 (dose: 60.0 mg/kg/injection, schedule: Q01DX001 (ip), vehicle: saline); 2 of 6 under setting [1]; 0 of 6 under setting [2]; 0 of 6 under setting [3].

As for `CC1CC(C)CC(C(O)C2CCCCC2)C1` (centres undefined), for the setting “dose: 300.0 mg/kg/injection, schedule: Q01DX001 (ip), vehicle: other”, the survivor count is reported as 1 of 6.

With `CCOC(=O)CN1N=C([P+](c2ccccc2)(c2ccccc2)c2ccccc2)CC1(c1ccccc1)c1ccccc1`, the survivor count was 2 of 6 under setting [1], 2 of 6 under setting [2] and 2 of 6 under setting [3].

Regarding `CCN(CC)CCOC(=O)C1c2ccccc2Oc2ccccc21`, the survivor count under setting [4] was 2 of 4.

Regarding `CCCCCCCCCCCCOP(=S)(S)OCCCCCCCCCCCC.[Cd]`, the survivor count is listed as 1 of 3 (dose: 25.0 mg/kg/injection, schedule: Q04DX002 (ip), vehicle: saline with Tween-80); 3 of 3 (dose: 200.0 mg/kg/injection, schedule: Q04DX002 (ip), vehicle: saline with Tween-80); 0 of 3 (dose: 400.0 mg/kg/injection, schedule: Q04DX002 (ip), vehicle: saline with Tween-80).

Regarding `O=C1c2ccccc2Cc2cscc21`, the survivor count under setting [5] was 0 of 3.

With `c1ccc(C2(c3ccccc3)CC([P+](c3ccccc3)(c3ccccc3)c3ccccc3)=NN2)cc1`, under setting [6], the survivor count is 0 of 6.

As for `C=Cc1nc2ccccc2[nH]1` (tested in a mixture with another compound), the survivor count reads like this: (dose: 40.0 mg/kg/injection, schedule: Q01DX001 (ip), vehicle: saline) 3 of 6; (dose: 100.0 mg/kg/injection, schedule: Q01DX001 (ip), vehicle: saline) 0 of 6; under setting [7], 0 of 6; under setting [6], 0 of 6.

As to `CN1CSCSC1`, the survivor count (dose: 200.0 mg/kg/injection, schedule: Q01DX009 (ip), vehicle: saline) is recorded as 0 of 6.

As for `C=CC[N+]1=C(C)C(C)(C)c2ccccc21`, the survivor count under setting [5] is recorded as 1 of 6.

Regarding `OCC1OC(n2cncn2)C(O)C1O` (centres undefined), the T/C runs as follows: (dose: 100.0 mg/kg/injection, schedule: Q01DX005 (ip), vehicle: saline) 134 % of control; (dose: 200.0 mg/kg/injection, schedule: Q01DX005 (ip), vehicle: saline) 146 % of control.

With `CCOC(=O)c1cc(Br)c(O)c(Br)c1`, the survivor count (dose: 200.0 mg/kg/injection, schedule: Q01DX009 (ip), vehicle: Klucel (hydroxypropylcellulose) (HPC)) is reported as 0 of 3.

On to `O=[N+]([O-])c1cc(Cl)ccc1N1CCCC1`, for which the survivor count (dose: 400.0 mg/kg/injection, schedule: Q01DX009 (ip), vehicle: saline with Tween-80) was 3 of 6.

For `O=C(C=C(C(F)(F)F)C(F)(F)F)c1ccc(C(=O)C=C(C(F)(F)F)C(F)(F)F)cc1`, the survivor count is, setting by setting: (dose: 100.0 mg/kg/injection, schedule: Q01DX009 (ip), vehicle: saline with Tween-80) 4 of 6; (dose: 200.0 mg/kg/injection, schedule: Q01DX009 (ip), vehicle: saline with Tween-80) 0 of 6.

Turning to `CCCCCCNC(=S)Nc1ccccc1`, under setting [6], the survivor count is 1 of 4.

For the compound `CCc1nc(Cl)c(Cl)[nH]1`, for the setting “dose: 400.0 mg/kg/injection, schedule: Q01DX001 (ip), vehicle: saline with Tween-80”, the survivor count is given as 0 of 6.

`COc1cc(C=Nc2ccc(-c3nc(Cc4ccccc4)sc3C)cc2)ccc1N(CCCl)CCCl`: the T/C by setting is: (dose: 13.0 mg/kg/injection, schedule: Q01DX001 (ip), vehicle: carboxymethylcellulose (CMC)) 134 % of control; (dose: 13.0 mg/kg/injection, schedule: Q01DX009 (ip), vehicle: Klucel (hydroxypropylcellulose) (HPC)) 133 % of control; (dose: 13.0 mg/kg/injection, schedule: Q01DX009 (ip), vehicle: carboxymethylcellulose (CMC)) 148 % of control; (dose: 20.0 mg/kg/injection, schedule: Q01DX001 (ip), vehicle: carboxymethylcellulose (CMC)) 148 % of control; (dose: 20.0 mg/kg/injection, schedule: Q01DX009 (ip), vehicle: Klucel (hydroxypropylcellulose) (HPC)) 138 % of control; (dose: 30.0 mg/kg/injection, schedule: Q01DX001 (ip), vehicle: carboxymethylcellulose (CMC)) 140 % of control. The T/C (dose: 45.0 mg/kg/injection, schedule: Q01DX009 (ip), vehicle: saline) is 132 % of control; the T/C (dose: 60.0 mg/kg/injection, schedule: Q01DX009 (ip), vehicle: saline) is 135 % of control; the T/C (dose: 66.0 mg/kg/injection, schedule: Q01DX001 (ip), vehicle: Klucel (hydroxypropylcellulose) (HPC)) was 131 % of control; the T/C (dose: 66.0 mg/kg/injection, schedule: Q01DX001 (ip), vehicle: carboxymethylcellulose (CMC)) is 135 % of control; the T/C (dose: 100.0 mg/kg/injection, schedule: Q01DX001 (ip), vehicle: Klucel (hydroxypropylcellulose) (HPC)) was 138 % of control; the T/C (dose: 100.0 mg/kg/injection, schedule: Q01DX001 (ip), vehicle: carboxymethylcellulose (CMC)) was 138 and 140 % of control. In addition, the T/C under setting [7] is 138 % of control. Further, the survivor count runs as follows: (dose: 30.0 mg/kg/injection, schedule: Q01DX009 (ip), vehicle: carboxymethylcellulose (CMC)) 5 of 6; (dose: 150.0 mg/kg/injection, schedule: Q01DX001 (ip), vehicle: Klucel (hydroxypropylcellulose) (HPC)) 5 of 6; under setting [3], 4 of 6; under setting [4], 0 of 6.

As for `CCN(CC)CCc1ccccn1`, the survivor count (dose: 100.0 mg/kg/injection, schedule: Q04DX003 (ip), vehicle: saline) was 2 of 6.

Turning to `CS(=O)(=O)OC/C(Br)=C/Br`, the survivor count under setting [4] is recorded as 2 of 4.

Consider `Clc1cc2n[nH]nc2c(SCc2ccccc2)n1`, for which, where the note is “dose: 400.0 mg/kg/injection, schedule: Q01DX005 (ip), vehicle: saline with Tween-80”, the survivor count is on record as 2 of 4.

Take `NNC(=O)Cc1nc2ccccc2[nH]c1=O`: the survivor count (dose: 400.0 mg/kg/injection, schedule: Q01DX009 (ip), vehicle: Klucel (hydroxypropylcellulose) (HPC)) is 6 of 6.

For the compound `Clc1ccc2c(NC3CCC(NC4CCCCC4)CC3)ccnc2c1` (centres undefined), the survivor count (dose: 24.0 mg/kg/injection, schedule: Q01DX Z (ip), vehicle: carboxymethylcellulose (CMC)) is given as 2 of 6.

With `NN1Cc2ccc3c4c(ccc(c24)C1)C=C3`, the survivor count runs as follows: (dose: 75.0 mg/kg/injection, schedule: Q01DX001 (ip), vehicle: carboxymethylcellulose (CMC)) 0 of 6; (dose: 150.0 mg/kg/injection, schedule: Q01DX001 (ip), vehicle: carboxymethylcellulose (CMC)) 1 of 6; (dose: 300.0 mg/kg/injection, schedule: Q01DX001 (ip), vehicle: carboxymethylcellulose (CMC)) 0 of 6.

`S=c1[nH]c2[nH]cnc(=S)c2[nH]1`: the survivor count under setting [6] is reported as 3 of 6.

As for `C[n+]1ncc2ccccc2c1Cc1ccc(Br)cc1`, the survivor count was 1 of 3 and 3 of 6 (dose: 25.0 mg/kg/injection, schedule: Q01DX009 (ip), vehicle: other); 3 of 3 and 6 of 6 (dose: 25.0 mg/kg/injection, schedule: Q04DX002 (ip), vehicle: carboxymethylcellulose (CMC)); 1 of 3 and 5 of 6 (dose: 50.0 mg/kg/injection, schedule: Q04DX002 (ip), vehicle: carboxymethylcellulose (CMC)); 1 of 3 and 3 of 6 (dose: 50.0 mg/kg/injection, schedule: Q04DX002 (ip), vehicle: other); 1 of 3 and 2 of 6 (dose: 100.0 mg/kg/injection, schedule: Q04DX002 (ip), vehicle: carboxymethylcellulose (CMC)); 0 of 3, 0 of 6, 1 of 3 (dose: 100.0 mg/kg/injection, schedule: Q04DX002 (ip), vehicle: other). Further, the survivor count was 0 of 3 and 0 of 6 (dose: 200.0 mg/kg/injection, schedule: Q04DX002 (ip), vehicle: other); 0 of 3 and 0 of 6 (dose: 400.0 mg/kg/injection, schedule: Q04DX002 (ip), vehicle: other).

The values above are taken from PubChem BioAssay AID248 (DTP/NCI, 2004).
